Laboratory results: PubChem BioAssay AID1224830 (NIAID, 2016)
Aim: 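Genes whose knock-down alters the TNF-alpha reporter response to LPS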 (primary screen). System: human THP-1 monocytic leukaemia cells, TNF dual-luciferase reporter clone, PMA-differentiated to macrophage-like cells. Reagents: siRNA pool against human genes, 50 nM. Time to read-out: LPS for 4 h, given about 3 days after siRNA transfection. Conditions: bacterial LPS (TLR4 ligand), 10 ng/ml. Detection: 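Ratio of firefly to renilla light, scaled to the plate median and expressed as a robust z-score per replicate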. Scale: TNF reporter robust z-score: higher = stronger TNF reporter response to LPS. Hit rule: 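Each well counts as active if its z-score is over 2.8 or under -1.5; controls are left without a call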.
In all, the deposit lists about 18,000 reagents; this is an unselected part. Of all reagents, about 2,900 (16%) are marked active. 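Calls are made per well; low scores hint the gene aids the LPS response, high scores that it dampens it.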 Entries without a mark were called inactive. Repeated entries: four replicate wells of each siRNA pool. No sequences are given here.

Which result is listed for CASQ1?
TNF reporter robust z-score: -0.98

What is on record for CASQ1?
TNF reporter robust z-score: -0.77

For CASQ1, what was measured?
TNF reporter robust z-score: -1.76 (active)

How did the screen score CASQ1?
TNF reporter robust z-score: -0.57

What did the screen give for LELP1?
TNF reporter robust z-score: -0.91

With LELP1, what was measured?
TNF reporter robust z-score: 0.7

How did the screen score LELP1?
TNF reporter robust z-score: -0.15

Which result is listed for DEFB123?
TNF reporter robust z-score: -0.64

What did the screen give for DEFB123?
TNF reporter robust z-score: -0.15

For DEFB123, what does the deposit list?
TNF reporter robust z-score: -1.28

With DEFB123, what was measured?
TNF reporter robust z-score: -0.21

Which result is listed for AVL9?
TNF reporter robust z-score: -0.46

For AVL9, how do the results read?
TNF reporter robust z-score: 1.77

For AVL9, what was measured?
TNF reporter robust z-score: 0.78

Which result is listed for AVL9?
TNF reporter robust z-score: 1.62

Which result is listed for DOCK5?
TNF reporter robust z-score: -1.28

For DOCK5, what was measured?
TNF reporter robust z-score: -0.82

For DOCK5, how do the results read?
TNF reporter robust z-score: -1.15

For DOCK5, what was measured?
TNF reporter robust z-score: -1

What is on record for MAP2K1?
TNF reporter robust z-score: -0.75

With MAP2K1, what does the deposit list?
TNF reporter robust z-score: -0.9

How did the screen score MAP2K1?
TNF reporter robust z-score: 0.02

Which result is listed for MAP2K1?
TNF reporter robust z-score: 0.05

What did the screen give for PLCL1?
TNF reporter robust z-score: -0.51

Which result is listed for PLCL1?
TNF reporter robust z-score: -1.13

What did the screen give for PLCL1?
TNF reporter robust z-score: -0.61

How did the screen score PLCL1?
TNF reporter robust z-score: -0.44

Which result is listed for SCN3A?
TNF reporter robust z-score: 0.87

For SCN3A, what does the deposit list?
TNF reporter robust z-score: 1.47

With SCN3A, what does the deposit list?
TNF reporter robust z-score: -0.78

How did the screen score SCN3A?
TNF reporter robust z-score: -0.15

Ordered by “TNF reporter robust z-score” (highest first): 2 of the entries above.
AVL9: TNF reporter robust z-score = 1.77
AVL9: TNF reporter robust z-score = -0.46

The list goes on.
For EXT1, what was measured?
TNF reporter robust z-score: -1.08

What is on record for EXT1?
TNF reporter robust z-score: -0.33

How did the screen score EXT1?
TNF reporter robust z-score: -0.61

Which result is listed for EXT1?
TNF reporter robust z-score: -0.53

What is on record for TBX6?
TNF reporter robust z-score: 1.38

What is on record for TBX6?
TNF reporter robust z-score: 1.42

What is on record for TBX6?
TNF reporter robust z-score: 0.44

What is on record for TBX6?
TNF reporter robust z-score: 0.67

With KCTD13, what was measured?
TNF reporter robust z-score: -1.42

For KCTD13, how do the results read?
TNF reporter robust z-score: 1.09

What did the screen give for KCTD13?
TNF reporter robust z-score: 1.7

What did the screen give for KCTD13?
TNF reporter robust z-score: 2.15

With C9orf78, how do the results read?
TNF reporter robust z-score: -1.4

How did the screen score C9orf78?
TNF reporter robust z-score: -0.63

What did the screen give for C9orf78?
TNF reporter robust z-score: 0.47

How did the screen score C9orf78?
TNF reporter robust z-score: 0.56
